# The inconclusive results got no clear call from the source; some entries with a clear call stand among them for comparison. The source made the active and inactive calls.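 Rule for the calls: active = fitted curve drops past -35% activity change at a concentration up to twice the top valid dose tested; inconclusive = no clear call, values can overlap the other calls; inactive = activity opposite to the expected decrease, or the rest.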
# Experiment: HepG2 cell viability loss, dose response, cytotoxicity control for LMP1 inhibitor project, CellTiter-Glo luminescence, dry powder (AID 624365)
# Settings: 48 h; at 19.5 µM (top of the series) unless noted
row,SMILES,"activity change, negative = cytotoxicity"
1,COc1ccccc1[C@]1(C)ON(c2ccccc2C(F)(F)F)C1=O,inconclusive: 41.4%
2,C[C@@H]1CCCCO[C@H](CN(C)C(=O)c2ccccc2)[C@H](C)CN([C@@H](C)CO)C(=O)c2cc(NC(=O)Nc3ccc(F)cc3)ccc2O1,inactive: -6.27%
3,C/C(=N\NC(=S)N1CC2CCC(CC2)C1)c1cnccn1,inconclusive: 0.647%
4,C[C@H](CO)N1C[C@H](C)[C@@H](CN(C)CC2CCCCC2)OCCCC[C@H](C)Oc2ccc(NC(=O)Nc3cccc4ccccc34)cc2C1=O,inactive: -6.9%
5,C/C(=N\NC(=S)N1CCCCCC1)c1ccccn1,inconclusive: -14.1%
6,C[C@@H]1CN([C@@H](C)CO)C(=O)c2cc(NC(=O)Nc3ccc(C(F)(F)F)cc3)ccc2O[C@@H](C)CCCCO[C@H]1CN(C)Cc1ccc(C(F)(F)F)cc1,inactive: -1.82%
7,c1ccc(Cn2c3ccccc3c3nnc(SCCN4CCCCC4)nc32)cc1,inconclusive: -32.7%
8,C/C(=N\NC(=S)N1CCN(C2CCCCCC2)CC1)c1ccccn1,inconclusive: -54.2%
9,S=C(N/N=C(\c1ccccc1)c1ccccn1)N(Cc1ccccn1)Cc1ccccn1,inconclusive: 27.9%
10,C/C(=N\NC(=S)N1CCCC1)c1ccccn1,inconclusive: 13.4%
11,COc1ccc(-c2csc3ncnc(NCCN4CCOCC4)c23)cc1,inactive: -1.72%
12,c1ccc(-c2cn3c4c(sc3n2)CCCC4)cc1,inactive: -13.4%
13,C/C(=N\NC(=S)Nc1cccc(C)c1)c1ccccn1,inconclusive: 25.4%
14,Cc1ccc(S(=O)(=O)Nc2ccc3c(c2)C(=O)N([C@@H](C)CO)C[C@H](C)[C@@H](CN(C)C(=O)CCC(F)(F)F)OCCCC[C@H](C)O3)cc1,inactive: 1.23%
15,C[C@@H]1CCCCO[C@H](CN(C)CC2CCCCC2)[C@H](C)CN([C@@H](C)CO)C(=O)c2cc(NC(=O)NC3CCCCC3)ccc2O1,inactive: -0.214%
16,C/C(=N\NC(=S)Nc1ccccc1)c1ccccn1,inactive: -2.52% [at 10 µM]
17,S=C(NCc1ccccn1)N/N=C/c1ccccn1,inconclusive: -9.78%
18,C/C(=N\NC(=S)N1CC2CCC(CC2)C1)c1ccccn1,inconclusive: -61.1%
19,Cc1ccnc(NC(=O)c2ccc(C(=O)c3ccccc3)cc2)c1,inactive: -6.85%
20,COc1ccccc1NC(=S)N/N=C(\C)c1ccccn1,inconclusive: 17.3%
21,C/C(=N\NC(=S)N1CCCCC1)c1ccccn1,inconclusive: -9.29% [at 10 µM]
22,C[C@@H]1CCCCO[C@@H](CN(C)Cc2ccccc2)[C@H](C)CN([C@H](C)CO)C(=O)c2cc(NC(=O)Nc3ccc4c(c3)OCO4)ccc2O1,inactive: -6.99%
23,CCC(Sc1nnc2c3ccccc3n(Cc3ccc(Br)cc3)c2n1)C(=O)NCCCN1CCOCC1 (stereo unspecified),inconclusive: -1.52%
24,C/C(=N\NC(=S)N1CCC1)c1ccccn1,inconclusive: 6.14%
25,C=CCN1Cc2ccccc2[C@@H]2OC(c3ccc(OCCCO)cc3)=N[C@]2(CCC(=O)OC(C)(C)C)C1=O,inactive: 4.76%
26,C/C(=N\NC(=S)N1CC2CCC(CC2)C1)c1ccncn1,inconclusive: 3.86%

# 3 compounds already listed, arranged by molar mass, falling:
row,SMILES,"activity change, negative = cytotoxicity"
14,Cc1ccc(S(=O)(=O)Nc2ccc3c(c2)C(=O)N([C@@H](C)CO)C[C@H](C)[C@@H](CN(C)C(=O)CCC(F)(F)F)OCCCC[C@H](C)O3)cc1,inactive: 1.23%
8,C/C(=N\NC(=S)N1CCN(C2CCCCCC2)CC1)c1ccccn1,inconclusive: -54.2%
19,Cc1ccnc(NC(=O)c2ccc(C(=O)c3ccccc3)cc2)c1,inactive: -6.85%
